Here are results for four substances from publication doi:10.1101/794776.

Chains of the proteins cited; added tags and fusions are not shown.
UniProt Q969G3: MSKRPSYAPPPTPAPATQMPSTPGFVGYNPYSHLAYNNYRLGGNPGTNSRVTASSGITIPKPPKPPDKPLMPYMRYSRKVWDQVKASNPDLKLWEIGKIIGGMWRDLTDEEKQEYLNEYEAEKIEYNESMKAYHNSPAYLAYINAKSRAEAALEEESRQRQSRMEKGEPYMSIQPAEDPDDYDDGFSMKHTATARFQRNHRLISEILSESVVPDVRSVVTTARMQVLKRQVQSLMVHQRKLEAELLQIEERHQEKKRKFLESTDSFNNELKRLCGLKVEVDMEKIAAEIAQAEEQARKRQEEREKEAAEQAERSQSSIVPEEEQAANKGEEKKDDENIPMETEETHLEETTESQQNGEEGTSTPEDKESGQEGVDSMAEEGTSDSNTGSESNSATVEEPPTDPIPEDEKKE
UniProt Q92922: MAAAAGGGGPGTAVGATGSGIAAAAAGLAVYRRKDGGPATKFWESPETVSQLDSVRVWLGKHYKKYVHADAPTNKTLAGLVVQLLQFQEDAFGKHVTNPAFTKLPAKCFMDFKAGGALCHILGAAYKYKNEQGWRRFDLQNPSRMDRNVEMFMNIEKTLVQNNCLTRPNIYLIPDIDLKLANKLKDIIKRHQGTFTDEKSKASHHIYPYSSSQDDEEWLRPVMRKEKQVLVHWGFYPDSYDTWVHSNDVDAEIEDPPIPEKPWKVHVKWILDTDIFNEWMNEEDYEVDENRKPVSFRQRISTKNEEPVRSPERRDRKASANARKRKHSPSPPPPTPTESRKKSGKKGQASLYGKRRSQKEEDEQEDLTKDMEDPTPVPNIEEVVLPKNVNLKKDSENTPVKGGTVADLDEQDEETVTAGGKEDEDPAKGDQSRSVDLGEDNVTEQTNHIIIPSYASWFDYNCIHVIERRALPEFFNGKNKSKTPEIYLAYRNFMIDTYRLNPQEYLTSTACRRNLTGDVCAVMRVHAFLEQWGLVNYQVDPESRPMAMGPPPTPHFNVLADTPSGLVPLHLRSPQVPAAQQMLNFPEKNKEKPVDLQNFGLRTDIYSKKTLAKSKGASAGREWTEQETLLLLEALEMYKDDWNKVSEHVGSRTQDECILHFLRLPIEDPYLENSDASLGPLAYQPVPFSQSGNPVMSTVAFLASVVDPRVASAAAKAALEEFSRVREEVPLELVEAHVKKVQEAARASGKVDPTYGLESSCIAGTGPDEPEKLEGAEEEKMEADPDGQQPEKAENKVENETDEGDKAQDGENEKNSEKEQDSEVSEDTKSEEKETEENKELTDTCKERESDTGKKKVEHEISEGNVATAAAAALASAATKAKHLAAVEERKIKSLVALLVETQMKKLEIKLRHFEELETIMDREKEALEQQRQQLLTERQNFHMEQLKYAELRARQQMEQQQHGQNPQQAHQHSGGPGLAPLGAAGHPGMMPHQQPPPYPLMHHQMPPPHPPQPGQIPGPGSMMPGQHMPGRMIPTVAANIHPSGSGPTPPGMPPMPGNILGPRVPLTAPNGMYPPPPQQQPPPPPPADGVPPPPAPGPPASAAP
UniProt Q68CP9: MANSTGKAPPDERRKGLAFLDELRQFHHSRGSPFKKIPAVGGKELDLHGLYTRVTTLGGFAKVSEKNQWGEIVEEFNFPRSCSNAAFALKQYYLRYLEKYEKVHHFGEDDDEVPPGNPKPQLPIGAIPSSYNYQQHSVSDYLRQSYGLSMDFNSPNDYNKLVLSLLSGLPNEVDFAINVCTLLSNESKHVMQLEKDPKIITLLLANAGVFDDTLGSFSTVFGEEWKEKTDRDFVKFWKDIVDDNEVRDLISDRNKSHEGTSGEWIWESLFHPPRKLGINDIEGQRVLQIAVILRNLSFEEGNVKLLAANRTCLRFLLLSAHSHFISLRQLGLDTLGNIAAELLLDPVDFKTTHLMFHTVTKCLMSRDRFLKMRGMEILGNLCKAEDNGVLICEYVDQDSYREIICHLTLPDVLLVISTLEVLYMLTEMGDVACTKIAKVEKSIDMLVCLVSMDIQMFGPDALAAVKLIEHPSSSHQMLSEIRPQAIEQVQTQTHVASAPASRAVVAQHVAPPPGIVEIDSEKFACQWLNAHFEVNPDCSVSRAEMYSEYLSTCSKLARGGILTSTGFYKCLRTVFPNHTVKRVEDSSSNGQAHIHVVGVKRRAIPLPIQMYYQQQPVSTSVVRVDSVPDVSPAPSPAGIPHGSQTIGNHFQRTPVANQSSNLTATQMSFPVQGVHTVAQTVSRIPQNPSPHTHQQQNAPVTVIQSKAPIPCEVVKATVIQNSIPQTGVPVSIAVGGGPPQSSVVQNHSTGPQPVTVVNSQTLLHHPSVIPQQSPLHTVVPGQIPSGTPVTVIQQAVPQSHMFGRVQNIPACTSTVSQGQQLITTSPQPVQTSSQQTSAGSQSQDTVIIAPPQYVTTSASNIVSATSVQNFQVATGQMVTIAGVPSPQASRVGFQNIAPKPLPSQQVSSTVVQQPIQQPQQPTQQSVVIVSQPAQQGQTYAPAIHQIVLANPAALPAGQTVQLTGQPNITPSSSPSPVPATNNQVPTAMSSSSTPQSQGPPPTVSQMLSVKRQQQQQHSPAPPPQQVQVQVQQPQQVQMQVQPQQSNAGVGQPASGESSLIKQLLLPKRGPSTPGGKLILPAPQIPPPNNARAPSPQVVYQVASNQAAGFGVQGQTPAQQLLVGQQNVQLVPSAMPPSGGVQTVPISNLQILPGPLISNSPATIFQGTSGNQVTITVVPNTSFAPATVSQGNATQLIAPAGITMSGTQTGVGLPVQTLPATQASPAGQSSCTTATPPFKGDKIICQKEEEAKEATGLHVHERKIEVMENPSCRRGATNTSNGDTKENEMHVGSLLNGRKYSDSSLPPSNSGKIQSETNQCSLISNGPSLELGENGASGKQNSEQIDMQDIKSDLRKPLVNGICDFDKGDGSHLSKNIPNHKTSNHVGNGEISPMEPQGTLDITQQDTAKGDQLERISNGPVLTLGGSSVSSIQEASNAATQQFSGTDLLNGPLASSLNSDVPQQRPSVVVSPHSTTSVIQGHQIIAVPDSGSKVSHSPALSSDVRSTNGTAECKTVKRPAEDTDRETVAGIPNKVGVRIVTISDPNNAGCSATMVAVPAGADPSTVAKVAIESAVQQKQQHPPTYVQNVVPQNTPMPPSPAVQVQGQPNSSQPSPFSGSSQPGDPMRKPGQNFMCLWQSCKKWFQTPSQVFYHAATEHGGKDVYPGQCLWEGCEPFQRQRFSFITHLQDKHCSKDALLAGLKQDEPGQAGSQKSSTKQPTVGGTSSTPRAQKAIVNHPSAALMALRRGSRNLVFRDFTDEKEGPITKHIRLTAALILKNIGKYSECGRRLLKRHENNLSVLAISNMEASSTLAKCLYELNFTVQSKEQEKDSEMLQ
UniProt Q9NZM4: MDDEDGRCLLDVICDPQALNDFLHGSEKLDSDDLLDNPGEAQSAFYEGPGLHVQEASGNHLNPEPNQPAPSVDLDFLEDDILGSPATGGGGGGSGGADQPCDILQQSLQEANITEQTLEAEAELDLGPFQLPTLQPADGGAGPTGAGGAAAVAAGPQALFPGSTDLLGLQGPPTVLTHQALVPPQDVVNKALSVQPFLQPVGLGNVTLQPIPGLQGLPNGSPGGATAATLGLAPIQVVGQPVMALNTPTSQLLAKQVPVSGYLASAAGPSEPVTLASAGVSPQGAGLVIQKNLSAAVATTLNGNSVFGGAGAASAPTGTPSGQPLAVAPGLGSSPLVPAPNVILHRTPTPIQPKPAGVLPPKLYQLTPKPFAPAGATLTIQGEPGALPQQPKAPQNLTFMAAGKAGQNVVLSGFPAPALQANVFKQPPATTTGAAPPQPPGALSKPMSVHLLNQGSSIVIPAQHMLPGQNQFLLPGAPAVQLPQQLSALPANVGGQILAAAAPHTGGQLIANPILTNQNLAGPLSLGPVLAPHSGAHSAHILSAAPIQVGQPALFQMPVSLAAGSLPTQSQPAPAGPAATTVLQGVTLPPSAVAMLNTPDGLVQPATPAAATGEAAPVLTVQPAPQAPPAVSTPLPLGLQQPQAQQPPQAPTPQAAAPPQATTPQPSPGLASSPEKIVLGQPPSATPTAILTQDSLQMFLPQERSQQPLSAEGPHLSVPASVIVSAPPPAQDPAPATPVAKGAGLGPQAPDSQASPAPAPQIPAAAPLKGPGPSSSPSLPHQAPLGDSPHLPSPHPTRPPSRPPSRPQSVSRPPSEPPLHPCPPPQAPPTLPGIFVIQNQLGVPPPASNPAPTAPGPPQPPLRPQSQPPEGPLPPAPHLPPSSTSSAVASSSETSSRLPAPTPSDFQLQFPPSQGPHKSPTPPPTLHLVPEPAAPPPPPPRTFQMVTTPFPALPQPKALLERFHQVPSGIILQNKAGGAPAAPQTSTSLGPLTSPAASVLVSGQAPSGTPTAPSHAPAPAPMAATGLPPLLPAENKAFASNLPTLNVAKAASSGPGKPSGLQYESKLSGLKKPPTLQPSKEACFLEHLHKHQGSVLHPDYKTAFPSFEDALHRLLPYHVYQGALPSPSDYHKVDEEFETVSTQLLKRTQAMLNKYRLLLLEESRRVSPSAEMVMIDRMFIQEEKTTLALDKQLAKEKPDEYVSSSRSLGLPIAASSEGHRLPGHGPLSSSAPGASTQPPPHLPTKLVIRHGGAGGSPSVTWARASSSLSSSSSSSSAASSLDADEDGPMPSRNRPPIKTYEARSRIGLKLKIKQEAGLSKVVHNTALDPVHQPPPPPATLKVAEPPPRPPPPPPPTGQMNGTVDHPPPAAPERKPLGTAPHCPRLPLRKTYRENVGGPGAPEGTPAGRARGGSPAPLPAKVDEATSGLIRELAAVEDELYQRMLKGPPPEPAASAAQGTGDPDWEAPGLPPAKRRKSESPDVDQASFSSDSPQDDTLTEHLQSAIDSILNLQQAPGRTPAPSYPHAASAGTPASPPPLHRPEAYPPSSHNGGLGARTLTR
UniProt Q6AI39: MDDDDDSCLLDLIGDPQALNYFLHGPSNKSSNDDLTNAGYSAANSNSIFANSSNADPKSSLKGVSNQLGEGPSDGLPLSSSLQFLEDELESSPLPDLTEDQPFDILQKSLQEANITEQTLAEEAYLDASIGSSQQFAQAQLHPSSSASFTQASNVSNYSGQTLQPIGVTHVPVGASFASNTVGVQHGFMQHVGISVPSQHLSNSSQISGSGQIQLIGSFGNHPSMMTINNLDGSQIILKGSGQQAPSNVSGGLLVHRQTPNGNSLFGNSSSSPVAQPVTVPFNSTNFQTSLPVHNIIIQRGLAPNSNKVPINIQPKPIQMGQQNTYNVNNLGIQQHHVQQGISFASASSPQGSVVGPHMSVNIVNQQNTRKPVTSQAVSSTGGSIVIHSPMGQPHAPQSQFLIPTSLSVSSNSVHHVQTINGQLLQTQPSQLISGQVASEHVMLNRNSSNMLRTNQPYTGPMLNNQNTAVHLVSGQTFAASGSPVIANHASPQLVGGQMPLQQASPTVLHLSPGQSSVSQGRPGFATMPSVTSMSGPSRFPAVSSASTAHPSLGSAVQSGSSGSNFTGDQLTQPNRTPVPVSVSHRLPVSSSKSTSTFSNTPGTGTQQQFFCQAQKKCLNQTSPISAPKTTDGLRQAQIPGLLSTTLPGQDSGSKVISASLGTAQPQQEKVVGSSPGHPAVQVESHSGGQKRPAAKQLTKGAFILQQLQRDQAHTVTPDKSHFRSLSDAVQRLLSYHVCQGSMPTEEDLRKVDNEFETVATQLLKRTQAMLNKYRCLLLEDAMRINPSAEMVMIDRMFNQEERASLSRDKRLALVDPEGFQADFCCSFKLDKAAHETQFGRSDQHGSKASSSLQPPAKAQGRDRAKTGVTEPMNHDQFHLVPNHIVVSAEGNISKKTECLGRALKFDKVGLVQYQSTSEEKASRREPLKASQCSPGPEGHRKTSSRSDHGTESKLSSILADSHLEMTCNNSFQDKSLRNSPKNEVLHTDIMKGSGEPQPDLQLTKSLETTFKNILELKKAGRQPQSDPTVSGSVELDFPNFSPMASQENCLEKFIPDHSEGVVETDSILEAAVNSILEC
UniProt Q9H8M2: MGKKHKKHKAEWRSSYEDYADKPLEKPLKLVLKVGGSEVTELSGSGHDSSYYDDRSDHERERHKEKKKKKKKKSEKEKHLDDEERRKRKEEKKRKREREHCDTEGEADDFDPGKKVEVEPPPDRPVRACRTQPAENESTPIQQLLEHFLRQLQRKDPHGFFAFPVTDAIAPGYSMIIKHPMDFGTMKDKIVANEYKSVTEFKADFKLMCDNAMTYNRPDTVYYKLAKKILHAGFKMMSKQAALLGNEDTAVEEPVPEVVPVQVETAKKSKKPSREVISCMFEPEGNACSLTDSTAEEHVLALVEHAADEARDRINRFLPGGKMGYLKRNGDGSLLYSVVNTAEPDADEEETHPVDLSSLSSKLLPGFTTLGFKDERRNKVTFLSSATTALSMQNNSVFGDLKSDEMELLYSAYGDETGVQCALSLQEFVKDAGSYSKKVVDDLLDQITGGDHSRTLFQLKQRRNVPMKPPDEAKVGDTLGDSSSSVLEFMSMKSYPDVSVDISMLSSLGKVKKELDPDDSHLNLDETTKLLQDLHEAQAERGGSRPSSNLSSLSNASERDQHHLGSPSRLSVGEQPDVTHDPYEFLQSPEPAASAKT

No constants are given. Whether binding was seen depends on the method and setting. Binding seen in cells or lysates may run through a third protein. Here binding means that the protein was enriched with, or labelled near, the bait; the list need not be complete. For part of these data: A no says only that the protein was not detected with the bait.

Holding throughout (assay): affinity purification with mass spectrometry
Experiment [1] deals with ARID1A (human (endogenous in HAP1, BIN67, SCCOHT1, COV434)) (UniProt O14497).
The target of experiment [2] is SMARCE1 (human (endogenous in HAP1, BIN67, SCCOHT1, COV434)) (UniProt Q969G3).
Experiment [3] concerns the target SMARCC1 (human (endogenous in HAP1, BIN67, SCCOHT1, COV434)) (UniProt Q92922).
Experiment [4] has as its target ARID2 (human (endogenous in HAP1, BIN67, SCCOHT1, COV434)) (UniProt Q68CP9).
For experiment [5], the target named is SMARCB1 (human (endogenous in HAP1, BIN67, SCCOHT1, COV434)) (UniProt Q12824).

Take BICRA (from UniProt Q9NZM4 1-1560): the binding entry is given as “no binding” in experiment [1]; “no binding” in experiment [2]; “binds” in experiment [3]; “no binding” in experiment [4]; “no binding” in experiment [5].
As to BICRAL (from UniProt Q6AI39 1-1079), the binding entry in experiment [1] is listed as “no binding”; in experiment [2] it was “no binding”; in experiment [3], “binds”; in experiment [4], “no binding”; in experiment [5], “no binding”.
For the substance BRD9 (from UniProt Q9H8M2 1-597), the binding result in experiment [1] is “no binding”; in experiment [2], “no binding”; in experiment [3] it was “binds”; in experiment [4] it was “no binding”; in experiment [5], “no binding”.
Turning to “SMARCA4 (wild type, HAP1) (from UniProt P51532 1-1647)”, the binding entry in experiment [1], in experiment [2] and in experiment [5] was “binds” in each case.
